Measured values as given in doi:10.1101/2022.03.29.486232.
Results are given in words; binding and its absence hold for the method and conditions named. Binding seen in cells or lysates may run through a third protein. A yes stands for co-enrichment or nearness to the bait. Other partners may have been found. Sequences can lack the tags named with a protein.

T1: leucine-rich glioma-inactivated 1 (LGI1), native, from mouse brain (mouse (endogenous in mouse brain)) (UniProt Q9JIA1)
T1 sequence: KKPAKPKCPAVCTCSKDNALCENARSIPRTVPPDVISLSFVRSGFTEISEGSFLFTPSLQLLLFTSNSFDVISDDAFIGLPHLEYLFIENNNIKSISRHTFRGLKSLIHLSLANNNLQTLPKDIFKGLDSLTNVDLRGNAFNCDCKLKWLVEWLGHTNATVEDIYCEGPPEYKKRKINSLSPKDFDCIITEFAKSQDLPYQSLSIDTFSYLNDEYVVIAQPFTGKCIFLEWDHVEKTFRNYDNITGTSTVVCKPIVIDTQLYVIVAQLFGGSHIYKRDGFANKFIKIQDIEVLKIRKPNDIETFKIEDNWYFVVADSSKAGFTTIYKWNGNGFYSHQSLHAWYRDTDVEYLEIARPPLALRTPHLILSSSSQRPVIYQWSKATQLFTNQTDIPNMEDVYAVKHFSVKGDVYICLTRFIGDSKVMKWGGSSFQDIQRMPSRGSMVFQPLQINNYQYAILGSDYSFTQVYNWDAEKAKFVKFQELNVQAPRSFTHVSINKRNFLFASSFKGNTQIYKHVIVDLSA

B1: ADAM23 (protein, UniProt Q9R1V7 284-829)
chain: AVNPSRGVFEEMKYLELMIVNDHKTYKKHRSSHAHTNNFAKSVVNLVDSIYKEQLNTRVVLVAVETWTEKDHIDITINPVQMLHDFSKYRQRIKQHADAVHLISRVTFHYKRSSLSYFGGVCSRIRGVGVNEYGLPMAVAQVLSQSLAQNLGIQWEPSSRKPKCECIESWGGCIMEETGVSHSRKFSKCSILEYRDFLQRGGGACLFNRPTKLFEPTECGNGYVEAGEECDCGFHVECYGVCCKKCSLSNGAHCSDGPCCNNTSCLFQSRGYECRDAVNSCDITEYCTGDSGQCPPNLHKQDGYSCNQNQGRCYNGECKTRDNQCQYIWGTKAAGSDKFCYEKLNTEGTEKGNCGKDGDRWIPCSKHDVFCGFLLCTNLTRAPRIGQLQGEIIPTSFYHQGRVIDCSGAHVVLDDDTDVGYVEDGTPCGPSMMCLDRKCLQIQALNMSSCPLDSRGKVCSGHGVCSNEATCICDFTWAGTDCSIRDPVRNPNPPKDEGPKGPSATNLIIGSIAGAILVAAIVLGGTGWGFKNVKKRRFDPTQQGPI
B2: Rab3a (protein, UniProt P63011 1-220)
chain: MASATDSRYGQKESSDQNFDYMFKILIIGNSSVGKTSFLFRYADDSFTPAFVSTVGIDFKVKTIYRNDKRIKLQIWDTAGQERYRTITTAYYRGAMGFILMYDITNEESFNAVQDWSTQIKTYSWDNAQVLLVGNKCDMEDERVVSSERGRQLADHLGFEFFEASAKDNINVKQTFERLVDVICEKMSESLDTADPAVTGAKQGPQLTDQQAPPHQDCAC
B3: Caspr2 (CNTNAP2) (protein, UniProt Q9CPW0 28-1332)
chain: APSTFQKCDEPLISGLPHVSFSSSSSLSSSYAPGYAKINKRGGAGGWSPSDSDHYQWLQVDFGNRKQISAIATQGRYSSSDWVTQYRMLYSDTGRNWKPYHQDGNIWAFPGNINSDSVVRHDLQHAVVARYVRIVPLDWNGEGHIGLRAEVYGCAYWADVINFDGHGVLPYRFRNKKMKTLKDVIALKFKTSESEGVLLHGEGQQGDYITLELKKAKLVLSLNLGSNQLGPIYGHTSVTSGSLLDDHHWHSVLIERQGRSINLTLDRSMQHFRTNGEFDYLDLDYEITFGGIPFSGKPSSSNRKNFKGCMESINYNGVNITDLARRKKLGPSNMGNLSFSCVEPYTVPVFFNATSYLEVPGRLNQDLFSVSFQFRTWNPSGLLLFSHFADNLGNVEIDLVESKVGVHINNTQTKTSQIDISSGSGLNDGQWHEVRFLAKENFAVLTIDGDEASAVRTNSPLQVKTGEKYFFGGFLNHMNNASYSALQPSFQGCMQLIQVDDQLVNLYEVAQRKPGSFANVTIDMCAIIDRCVPNHCEHGGKCSQTWDSFKCTCDETGYSGATCHNSIYEPSCEAYKHLGQTSNYYWIDPDGSGPLGPLKVYCNMTEDKVWTIVSHDLQMQTTVVGYNPEKYSVTQLIYSASMDQISAITSSAEYCEQYVSYFCRMSRLLNTPDGSPYTWWVGKANEKHYYWGGSEPGIQKCACGIERNCTDPKYYCNCDADYKQWRKDAGFLSYKDHLPVSQVVVGDTDRQGSEAKLSVGPLRCQGDRNYWNAASFPNPSSYLHFSTFQGETSADISFYFKTLIPRGVFLENLGNTDFIKLELKSATEVSFSFDVGNGPVEIVVRSPSPLNDDQWHRVTAERNVKQASLQVDRLPQQIRKAPTEGHTRLELYSQLFVGGAGGQQGFLGCIRSLRMNGVTLDLEERAKVTSGFKSGCSGHCTSYGANCENGGKCIEKYHGYSCDCSNTAYDGTFCNKDVGAFFEEGMWLRYNFQAPAVTARDTGSRAENSADQQQHLAPDLAQEQIHFSFSTTKAPCILLYVSSLTTDFLAVLVKPTGNLQIRYNLGGTREPFNIDVDHRNMANGQPHSVNITRHERTIILKLDHYPAVGYHLPSSSDTLFNSPKSLFLGKVIETGKIDQEIHKYNTPGFTGCLSRVQFNHIAPLKAALRQTNASAHVHIQGELVESNCGASPLTLSPMSSATDPWHLDHLDSASADFPYNPGQGQAIRNGVNRNSAIIGGVIAVVIFTILCTLVFLIRYMFRHKGTYHTNEAKGAESAESADAAIMNNDPNFTETIDESKKEWLI
B4: ADP/ATP translocase 2 (ADT2 / SLC25A5) (protein, UniProt P51881 1-298)
chain: MTDAAVSFAKDFLAGGVAAAISKTAVAPIERVKLLLQVQHASKQITADKQYKGIIDCVVRIPKEQGVLSFWRGNLANVIRYFPTQALNFAFKDKYKQIFLGGVDKRTQFWRYFAGNLASGGAAGATSLCFVYPLDFARTRLAADVGKAGAEREFKGLGDCLVKIYKSDGIKGLYQGFNVSVQGIIIYRAAYFGIYDTAKGMLPDPKNTHIFISWMIAQSVTAVAGLTSYPFDTVRRRMMMQSGRKGTDIMYTGTLDCWRKIARDEGSKAFFKGAWSNVLRGMGGAFVLVLYDEIKKYT
B5: doublecortin-like kinase 1 (DCLK1) (enzyme, UniProt Q9JLM8 1-756)
chain: MSFGRDMELEHFDERDKAQRYSRGSRVNGLPSPTHSAHCSFYRTRTLQTLSSEKKAKKVRFYRNGDRYFKGIVYAISPDRFRSFEALLADLTRTLSDNVNLPQGVRTIYTIDGLKKISSLDQLVEGESYVCGSIEPFKKLEYTKNVNPNWSVNVKTTSASRAVSSLATAKGGPSEVRENKDFIRPKLVTIIRSGVKPRKAVRILLNKKTAHSFEQVLTDITDAIKLDSGVVKRLYTLDGKQVMCLQDFFGDDDIFIACGPEKFRYQDDFLLDESECRVVKSTSYTKIASASRRGTTKSPGPSRRSKSPASTSSVNGTPGSQLSTPRSGKSPSPSPTSPGSLRKQRISQHGGSSTSLSSTKVCSSMDENDGPGEGDELGRRHSLQRGWRREESEEGFQIPATITERYKVGRTIGDGNFAVVKECIERSTAREYALKIIKKSKCRGKEHMIQNEVSILRRVKHPNIVLLIEEMDVPTELYLVMELVKGGDLFDAITSTSKYTERDASGMLYNLASAIKYLHSLNIVHRDIKPENLLVYEHQDGSKSLKLGDFGLATIVDGPLYTVCGTPTYVAPEIIAETGYGLKVDIWAAGVITYILLCGFPPFRGSGDDQEVLFDQILMGQVDFPSPYWDNVSDSAKELINMMLLVNVDQRFSAVQVLEHPWVNDDGLPENEHQLSVAGKIKKHFNTGPKPSSTAAGVSVIATTALDKERQVFRRRRNQDVRSRYKAQPAPPELNSESEDYSPSSSETVRSPNSPF
B6: CN37 (2’,3’-cyclic-nucleotide 3’-phosphodiesterase) (enzyme, UniProt P16330 1-420)
chain: MNTSFTRKSHTFLPKLFFRKMSSSGAKEKPELQFPFLQDEDTVATLHECKTLFILRGLPGSGKSTLARLILEKYHDGTKMVSADAYKIIPGSRADFSEAYKRLDEDLAGYCRRDIRVLVLDDTNHERERLDQLFEMADQYQYQVVLVEPKTAWRLDCAQLKEKNQWQLSADDLKKLKPGLEKDFLPLYFGWFLTKKSSETLRKAGQVFLEELGNHKAFKKELRHFISGDEPKEKLELVSYFGKRPPGVLHCTTKFCDYGKAAGAEEYAQQEVVKRSYGKAFKLSISALFVTPKTAGAQVVLTDQELQLWPSDLDKPSASEGLPPGSRAHVTLGCAADVQPVQTGLDLLDILQQVKGGSQGEAVGELPRGKLYSLGKGRWMLSLTKKMEVKAIFTGYYGKGKPVPIHGSRKGGAMQICTII
B7: VAPA (Vesicle-associated membrane protein-associated protein A) (protein, UniProt Q9WV55 1-249)
chain: MASASGAMAKHEQILVLDPPSDLKFKGPFTDVVTTNLKLQNPSDRKVCFKVKTTAPRRYCVRPNSGIIDPGSIVTVSVMLQPFDYDPNEKSKHKFMVQTIFAPPNISDMEAVWKEAKPDELMDSKLRCVFEMPNENDKLNDMEPSKAVPLNASKQDGPLPKPHSVSLNDTETRKLMEECKRLQGEMMKLSEENRHLRDEGLRLRKVAHSDKPGSTSAVSFRDNVTSPLPSLLVVIAAIFIGFFLGKFIL
B8: TAG1 (CNTN2) (protein, UniProt Q61330 31-1014)
chain: QGTPATFGPVFEEQPVGLLFPEESAEDQVTLACRARASPPATYRWKMNGTEMNLEPGSRHQLMGGNLVIMSPTKAQDAGVYQCLASNPVGTVVSKEAVLRFGFLQEFSKEERDPVKTHEGWGVMLPCNPPAHYPGLSYRWLLNEFPNFIPTDGRHFVSQTTGNLYIARTNASDLGNYSCLATSHLDFSTKSVFSKFAQLNLAAEDPRLFAPSIKARFPPETYALVGQQVTLECFAFGNPVPRIKWRKVDGSLSPQWGTAEPTLQIPSVSFEDEGTYECEAENSKGRDTVQGRIIVQAQPEWLKVISDTEADIGSNLRWGCAAAGKPRPMVRWLRNGEPLASQNRVEVLAGDLRFSKLNLEDSGMYQCVAENKHGTIYASAELAVQALAPDFRQNPVRRLIPAARGGEISIPCQPRAAPKATILWSKGTEILGNSTRVTVTLDGTLIIRNISRSDEGKYTCFAENFMGKANSTGILSVRDATKITLAPSSADINVGDNLTLQCHASHDPTMDLTFTWTLDDFPVDFDKPGGHYRRASVKETIGDLTILNAQLRHGGTYTCMAQTVVDGASKEATVLVRGPPGPPGGVVVRDIGDTTVQLSWSRGFDNHSPIAKYTLQARTPPSGKWKQVRTNPVNIEGNAETAQVLGLMPWMDYEFRVSASNILGTGEPSGPSSRIRTKEAVPSVAPSGLSGGGGAPGELTINWTPMSREYQNGDGFGYLLSFRRQGSSSWQTARVPGADTQYFVYSNDSIHPYTPFEVKIRSYNRRGDGPESLTAIVYSAEEEPKVAPAKVWAKGSSSSEMNVSWEPVLQDMNGILLGYEIRYWKAGDKEAAADRVRTAGLDSSARVTGLYPNTKYHVTVRAYNRAGTGPASPSADAMTMKPPPRRPPGNISWTFSSSSLSLKWDPVVPLRNESTVTGYKMLYQNDLQPTPMLHLTSKNWIEIPVPEDIGHALVQIRTTGPGGDGIPAEVHIVRNGGTSMMVES

These binders were tested against T1, leucine-rich glioma-inactivated 1 (LGI1), native, from mouse brain (mouse (endogenous in mouse brain)) (assay: affinity purification with mass spectrometry).

binding	Binder
binds	B1
binds	B2
binds	B3
binds	B4
binds	B5
binds	B6
binds	B7
binds	B8
